Data from PubChem BioAssay AID2685 (National Center for Advancing Translational Sciences (NCATS), 2010).
The other results are listed elsewhere or left out. These are further read-outs of the screen, such as a control signal, another cell line or another target. No call is given for them. The list favours compounds with an active or inconclusive main result. Words in brackets tell the shape of the fitted curve; partial curves, single points and poor fits give uncertain potencies.

Assay: qHTS Assay for Lipid Storage Modulators in Drosophila S3 Cells;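 for cell number change: cells counted by Cell Tracker Red CMTPX staining in the red channel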
Settings: BODIPY lipid droplet fluorescence, 18-24 h; for cell number change: measured here: cell count max response, cells fed with added oleic acid
Summary of the method: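 Drosophila S3 cells loaded with oleic acid (400 uM, as added) and compounds at several concentrations; lipid droplets imaged by 488-nm laser-scanning cytometry, 500–530 nm intensity and object ratio to cell channel. Percent activity normalized to 20 uM Triacsin C.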

[1] = measured here: lipid fluorescence (Fed channel) AC50, cells fed with added oleic acid
[2] = measured here: cell number channel AC50, cells fed with added oleic acid

Cc1ccc(O)c(C(=O)c2cnn(C(=O)COc3ccccc3C#N)c2)c1
cell number change: 29.4% | AC50 [1]: 1.03 µM [rising, full curve, poor fit]

CC1(C)NC(=O)N(CC(=O)OCC(=O)N2CCN(S(=O)(=O)c3ccccc3)CC2)C1=O
cell number change: -6.83%

COc1ccc(C(C(=O)NCC2CCCO2)N(Cc2ccccc2)C(=O)CNC(=O)c2ccco2)cc1OC (stereo not given)
cell number change: 3.81% | AC50 [1]: 29.1 µM [rising, single point]

CSc1ccc(CN(C)CC(=O)NC(=O)NC(C)(C)C)cc1
cell number change: -0.354%

Cc1sc(NC(=O)c2ccccc2F)c(CN2CCCCC2)c1C
cell number change: -7.78% | AC50 [2]: 6.51 µM [rising, single point] | AC50 [1]: 1.84 µM [falling, partial curve]

Cn1c(=O)n(C)c2cc(/C=N/NC(=S)NCc3ccccc3)ccc21
cell number change: 13.7% | AC50 [1]: 0.082 µM [rising, full curve, poor fit]

Cc1ccc2nc(SCC(=O)Nc3c(F)cccc3F)[nH]c2c1
cell number change: -57.6% | AC50 [2]: 16.4 µM [falling, partial curve] | AC50 [1]: 23.1 µM [falling, partial curve, poor fit]

O=C1CCC(C(=O)N(Cc2ccco2)C2(C(=O)NC3CCCC3)CCCCC2)N1 (stereo not given)
cell number change: -33.2% | AC50 [2]: 0.13 µM [falling, full curve] | AC50 [1]: 1.3 µM [falling, full curve]

COc1ccc(/C=C2\SC(=S)N(CC(=O)NNC(=O)c3ccncc3)C2=O)cc1
cell number change: 53.2% | AC50 [2]: 29.1 µM [rising, single point] | AC50 [1]: 4.61 µM [rising, partial curve, poor fit]

Cc1ccccc1NS(=O)(=O)c1cc(C(=O)NCCC2=CCCCC2)ccc1C
cell number change: -26.1% | AC50 [1]: 0.164 µM [falling, full curve, poor fit]

NC(=O)C1CCCN(Cc2ccc(Cl)cc2)C1 (stereo not given)
AC50 [1]: 23.1 µM [falling, partial curve]

CC1(C)CC2(CCO1)OC(=O)CC2C(=O)NCCc1ccccc1 (stereo not given)
cell number change: 10.4%

CCOCCOC(=O)c1[nH]c2c(c1C)C(=O)CC(c1ccc(OC)c(OC)c1)C2 (stereo not given)
cell number change: -37.4% | AC50 [2]: 20.6 µM [falling, single point] | AC50 [1]: 18.4 µM [falling, single point]

CCOc1cccc2cc(C(N)=O)c(=N)oc12
cell number change: 15.1% | AC50 [1]: 3.26 µM [rising, partial curve]

CC(=O)c1ccc(N(CC(=O)NC2CCCCC2)C(=O)CNC(=O)c2ccco2)cc1
cell number change: 24.4% | AC50 [1]: 6.51 µM [rising, partial curve]

O=C(c1ccco1)c1nc2c(n1O)CCCCC2
cell number change: -17.6% | AC50 [2]: 0.116 µM [falling, full curve, poor fit] | AC50 [1]: 6.51 µM [falling, single point]

COCCNC(=S)NNc1ccc(Cl)c(C(=O)O)c1
cell number change: -11.3% | AC50 [1]: 29.1 µM [falling, single point]

Cc1ccc(C)c(N2CCN(C(=O)CN3C(=S)NC(C)(C)CC3C)CC2)c1 (stereo not given)
AC50 [2]: 0.731 µM [rising, single point]

CCOC(=O)CSc1nnc(-c2cc(OC)c(OC)c(OC)c2)o1
cell number change: 26.3%

CCOC(=O)c1nnn(-c2nonc2N)c1-c1cccc2ccccc12
cell number change: 94.3% | AC50 [2]: 18.4 µM [rising, single point]

COc1cccc2oc3cc(C#CC4(O)CCCCC4)ccc3c(=O)c12
cell number change: -37.4% | AC50 [2]: 36.6 µM [falling, partial curve, poor fit] | AC50 [1]: 1.16 µM [rising, single point]

COc1cccc(-c2nc(-c3ccc(NC(=O)c4cccs4)cc3)no2)c1
cell number change: 118%

COC(=O)C1=C(C)N(c2ccc(F)cc2)C(=O)C1
cell number change: -10.7% | AC50 [2]: 0.731 µM [falling, partial curve, poor fit]

O=S(=O)(Nc1cccc(C(F)(F)F)c1)c1cnc[nH]1
cell number change: -6.69% | AC50 [1]: 14.6 µM [falling, partial curve]

CN(CC(=O)Nc1ccc(N2CCOCC2)cc1)CC(=O)Nc1ccccc1[N+](=O)[O-]
cell number change: 79.1% | AC50 [2]: 11.6 µM [rising, partial curve] | AC50 [1]: 16.4 µM [rising, partial curve]

COc1ccccc1NC(=O)C(=O)/C=C(\O)c1ccccc1
cell number change: -15.6% | AC50 [1]: 0.082 µM [falling, full curve, poor fit]

COCCN(Cc1nc2ccccc2c(=O)[nH]1)C(=O)COc1ccccc1-c1ccccc1
cell number change: -7.3% | AC50 [2]: 0.731 µM [falling, single point]

CC(C)CN(CC(C)C)C(=O)Nc1ccccc1F
cell number change: -27.1% | AC50 [1]: 29.1 µM [falling, single point]

CCN(CC(=O)NCc1cccs1)C(=O)C(c1ccccc1)c1ccccc1
cell number change: 5.56% | AC50 [1]: 29.1 µM [rising, single point]

Clc1ccc(-c2nnn(Cc3nc4ccccc4s3)n2)cc1
cell number change: 31% | AC50 [2]: 29.1 µM [rising, single point]

Cn1c(=O)c2c(nc(N3CCCC3)n2C)n(C)c1=O
cell number change: -34% | AC50 [2]: 2.31 µM [falling, partial curve] | AC50 [1]: 6.51 µM [falling, full curve]

Cc1c(C(=O)N(C)CCn2ccnc2C)oc2c(F)cccc12
cell number change: 13.4%

O=C(c1cccc(NC2=NC3CS(=O)(=O)CC3S2)c1)N1CCN(c2ccc(F)cc2)CC1 (stereo not given)
cell number change: -1.73% | AC50 [1]: 29.1 µM [rising, single point]

O=C(NC(Cc1ccccc1)C(=O)O)/C(=C/c1cccc([N+](=O)[O-])c1)NC(=O)c1ccco1 (stereo not given)
cell number change: 13.5%

COc1ccc(NC(=S)Nc2cccc(C(F)(F)F)c2)c(C)c1
cell number change: 24.9% | AC50 [1]: 0.1 µM [rising, full curve, poor fit]

COc1cc(NC(=O)CSc2ccc(-c3ccco3)nn2)cc(OC)c1
cell number change: 1.73%

CN(C)c1ccc(C(=S)N2CCCCCC2)cc1
AC50 [1]: 20.6 µM [rising, partial curve]

CC1(C)C2CC=C(/C=N/NC(=O)c3ccccc3Br)C1C2 (stereo not given)
cell number change: -33.5% | AC50 [2]: 7.31 µM [falling, partial curve] | AC50 [1]: 7.31 µM [falling, partial curve]

CCOC(=O)N1CCN(C(=O)c2cc(-c3ccncc3)nc3ccccc23)CC1
cell number change: 50% | AC50 [2]: 2.06 µM [rising, full curve, poor fit]

NC(=O)CC(NC(=O)c1cccc(Br)c1)c1ccc(NCCN2CCOCC2)c([N+](=O)[O-])c1 (stereo not given)
cell number change: 1.59% | AC50 [1]: 29.1 µM [falling, single point]

O=S(=O)(NCc1ccncc1)c1ccc(S(=O)(=O)NCC2CCCO2)cc1 (stereo not given)
cell number change: -15.4% | AC50 [1]: 2.06 µM [rising, single point]

Cc1cccc2cc(C#N)c(SCC#N)nc12
AC50 [2]: 0.058 µM [rising, full curve, poor fit]

COc1ccc(O)c(C(=O)CC(=O)c2ccc(F)cc2)c1
cell number change: -56.9% | AC50 [2]: 23.1 µM [falling, single point] | AC50 [1]: 18.4 µM [falling, single point]

O=C(COc1ccccc1Cl)NNC(=O)c1cc(S(=O)(=O)N2CCOCC2)ccc1N1CCCC1
cell number change: -5.44% | AC50 [1]: 29.1 µM [rising, single point]

O=c1c2ccccc2nc(CSc2ncnc3nc[nH]c23)n1-c1cccc(C(F)(F)F)c1
cell number change: 19.5%

Cc1cccc(CCNC(=O)C2CCC(=O)N2Cc2ccc(F)cc2)c1 (stereo not given)
cell number change: 6.92% | AC50 [1]: 29.1 µM [rising, partial curve, poor fit]

CCCCN1C(=O)C(O)(c2ccccc2)c2cc(Br)ccc21 (stereo not given)
cell number change: -41% | AC50 [2]: 16.4 µM [falling, single point] | AC50 [1]: 29.1 µM [falling, single point]

COc1ccc(OC)c(N(CC(=O)N2CCOCC2)S(C)(=O)=O)c1
cell number change: 7.67%

COc1cc(NC(=O)c2cc(C)nc3ccccc23)cc(OC)c1OC
cell number change: -0.566% | AC50 [2]: 0.517 µM [falling, single point]

COc1cc(NC(=O)c2cccs2)c(C(=O)OCC(=O)NCc2ccccc2)cc1OC
cell number change: -9.51%

O=C(NC(=S)Nc1ccccc1O)c1ccccc1Cl
cell number change: 16.2% | AC50 [2]: 0.651 µM [rising, partial curve, poor fit] | AC50 [1]: 16.4 µM [rising, single point]

N#Cc1c(Nc2ccccc2)sc(C(=O)c2ccc(F)cc2)c1N
cell number change: -55.4% | AC50 [2]: 0.259 µM [falling, full curve]

CC(C)N1CC(C(=O)Nc2cccc([N+](=O)[O-])c2)CC1=O (stereo not given)
cell number change: -9.85% | AC50 [1]: 0.731 µM [falling, full curve, poor fit]

Cc1cc(C)c(OCC(=O)OCC(=O)NCCC2=CCCCC2)c(C)c1
AC50 [2]: 2.31 µM [rising, partial curve]

CCOCCn1c(=O)c2c(nc3n2CC(C)CN3Cc2ccccc2)n(C)c1=O (stereo not given)
cell number change: -1.79%

COc1ccc(/C=C2\CCC/C(=C\c3ccc(OC)c(OC)c3OC)C2=O)c(OC)c1OC
cell number change: -2.78% | AC50 [2]: 6.51 µM [rising, single point] | AC50 [1]: 6.51 µM [falling, partial curve]

COc1ccccc1/C=C\C=N\n1c(-c2ccc(Cl)cc2Cl)n[nH]c1=S
AC50 [1]: 2.06 µM [rising, single point]

Cc1cc(C)n2c(SCC(=O)Nc3c(C)n(C)n(-c4ccccc4)c3=O)nnc2n1
cell number change: -2.17% | AC50 [1]: 1.64 µM [rising, partial curve]

CCOC(=O)C(CSCC(=O)c1ccc(Br)cc1)NC(=O)OC(C)(C)C (stereo not given)
cell number change: -0.264% | AC50 [2]: 6.51 µM [falling, single point] | AC50 [1]: 4.61 µM [falling, single point]
